The values below come from US20100266677.

The exact form of at least one protein or probe is not confirmed. Protein sequences can lack the tags named with them.

The series deals with T1, MBNL1 (UniProt Q9NR56).
T1 sequence (looked up, limits assumed): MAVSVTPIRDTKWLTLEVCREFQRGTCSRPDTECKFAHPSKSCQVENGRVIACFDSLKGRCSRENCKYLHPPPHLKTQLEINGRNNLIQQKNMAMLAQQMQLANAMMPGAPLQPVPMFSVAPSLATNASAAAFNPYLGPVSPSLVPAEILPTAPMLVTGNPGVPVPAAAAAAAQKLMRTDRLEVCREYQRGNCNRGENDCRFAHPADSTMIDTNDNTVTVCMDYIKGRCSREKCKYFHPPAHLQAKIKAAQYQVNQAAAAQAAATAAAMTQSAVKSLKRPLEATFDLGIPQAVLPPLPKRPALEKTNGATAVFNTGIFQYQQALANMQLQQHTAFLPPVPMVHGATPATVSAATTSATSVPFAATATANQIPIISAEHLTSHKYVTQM
As to the kind of experiment: binding assay. The following applies: enzyme fragment complementation (beta-galactosidase) on plate-immobilized RNA; signal inhibited up to 50% by dimer ligands 8-8, 9-9, 7-9, 8-9, not by 6-6 or …; purified recombinant protein.

Take “GGGCUGCUGCUGCUGCUGCUGCUGCUGCUGCUGCUGCUGCUGCUGCUGCUGCUGCUGCUGCUGCUGCUGCUGCUGCUGCUGCUGCUGCUGCUGCUGCUGCUGCUGCUGCUGCUGCUGCUGCUGCUGCUGCUGCUGCUGCUGCUGCUGCUGCUGCUGCUGCUGCUGCUGCUGCUGCUGCUGCUGCUGCUGCUGCUGCUGCUGCUGCUGCUGCUGCUGCUGCUGCUGCUGCUGCUGCUGCUGCUGCUGCUGCUGCUGCUGCUGCUGCUGCUGCUGCUGCUGCUGCUGCUGCUGCUGCUGCUGCUGCUGCUGCUGCUGCUGCUGCUGCUGCUGGGG [(CUG)109 repeat RNA]”: the binding result is given as “binds”.
